In patent publication US20080280824A1, “COMPOSITIONS AND METHODS FOR TREATMENT OF CANCER OR NEURODEGENERATIVE DISEASE WITH PEPTIDE BASED MICROTUBULE STABILIZERS OR INHIBITORS” (University of Washington, priority 2007, published 2008) one finds binding data, which are given here for one molecule.

Sequences of proteins named here, by UniProt entry; tags and fusion partners are left off. A change or cut given only in a name is not applied to a line headed by its entry.
UniProt P81947: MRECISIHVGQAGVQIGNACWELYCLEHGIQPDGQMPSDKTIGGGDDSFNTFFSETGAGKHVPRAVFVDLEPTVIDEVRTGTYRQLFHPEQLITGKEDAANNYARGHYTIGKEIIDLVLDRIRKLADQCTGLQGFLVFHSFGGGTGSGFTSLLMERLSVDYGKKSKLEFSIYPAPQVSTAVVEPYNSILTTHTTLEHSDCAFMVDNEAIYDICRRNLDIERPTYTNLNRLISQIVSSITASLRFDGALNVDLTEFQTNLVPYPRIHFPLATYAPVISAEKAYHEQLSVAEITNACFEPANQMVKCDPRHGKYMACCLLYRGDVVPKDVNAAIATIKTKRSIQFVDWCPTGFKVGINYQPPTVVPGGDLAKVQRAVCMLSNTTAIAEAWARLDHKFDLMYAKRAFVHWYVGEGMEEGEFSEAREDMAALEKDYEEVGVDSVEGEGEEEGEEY
UniProt Q6B856: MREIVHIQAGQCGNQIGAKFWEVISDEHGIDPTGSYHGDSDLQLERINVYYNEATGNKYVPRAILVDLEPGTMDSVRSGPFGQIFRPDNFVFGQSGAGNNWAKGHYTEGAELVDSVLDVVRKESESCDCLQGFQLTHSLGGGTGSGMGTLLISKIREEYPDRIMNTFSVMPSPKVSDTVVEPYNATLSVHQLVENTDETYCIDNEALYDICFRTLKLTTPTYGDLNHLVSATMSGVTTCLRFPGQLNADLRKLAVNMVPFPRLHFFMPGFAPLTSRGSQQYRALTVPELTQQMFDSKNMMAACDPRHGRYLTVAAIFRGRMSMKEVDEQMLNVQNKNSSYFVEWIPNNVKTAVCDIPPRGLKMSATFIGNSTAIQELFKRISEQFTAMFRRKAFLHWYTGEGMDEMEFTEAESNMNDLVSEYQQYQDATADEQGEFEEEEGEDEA

Results are given in words; binding and its absence hold for the method and conditions named. Some entries that bind do so weakly or less than the wild type.

This assay deals with Bovine brain tubulin (bovine) (UniProt P81947+Q6B856). Description: inferred from the dependence of microtubule assembly on the αB crystallin concentration; no direct binding assay.

B1: wt human αB crystallin (protein, UniProt P02511 1-175, looked up)
chain: MDIAIHHPWIRRPFFPFHSPSRLFDQFFGEHLLESDLFPTSTSLSPFYLRPPSFLRAPSWFDTGLSEMRLEKDRFSVNLDVKHFSPEELKVKVLGDVIEVHGKHEERQDEHGFISREFHRKYRIPADVDPLTITSSLSSDGVLTVNGPRKQVSGPERTIPITREEKPAVTAAPKK
Regarding B1, the binding entry is listed as “binds”.
